Measured values published in PMC11491553, “Structural insights into the mechanotransducing mechanism of FtsEX in cell division” (MedComm, 2024).
These are yes or no findings as the source states them, for the method shown. Some results given as binding are weak or reduced against the parent protein; the word gives no strength. For some of these results: Tags and fused reporters may be left off the sequences shown.

Legend:
[1] = molecular target: T1, FtsE(E163Q) (E. coli K12) (UniProt P0A9R7); experiment: cryo-EM structure; FtsE(E163Q)X with endogenously captured ATP, reconstituted into lipid nanodiscs (MSP1D1, E. coli polar extract, 1:2:200); 2.6 Å; both purified
T1 sequence: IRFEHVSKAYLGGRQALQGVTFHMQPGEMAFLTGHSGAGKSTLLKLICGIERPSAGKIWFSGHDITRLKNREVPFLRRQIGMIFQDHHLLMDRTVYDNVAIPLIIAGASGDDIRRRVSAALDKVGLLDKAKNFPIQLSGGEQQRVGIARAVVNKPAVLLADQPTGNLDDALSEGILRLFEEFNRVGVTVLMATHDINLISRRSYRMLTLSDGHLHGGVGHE

[2] = molecular target: T2, EYFP–FtsE(E163Q) (E. coli) (UniProt P0A9R7); experiment: FRET or BRET; purified EYFP–FtsE (acceptor) with FtsX–ECFP (donor) in a black 96-well plate; excitation 458 nm, emission 450-600 nm; both purified
T2 sequence: T1 sequence

[3] = molecular target: T3, FtsE(E163Q)X complex (E. coli K12) (UniProt P0A9R7+P0AC30); experiment: cryo-EM structure; FtsE(E163Q)X-EnvC complex; EnvC(35-419) incubated with FtsE(E163Q)X at 10:1, room temperature, 1 h, recaptured by nickel affinity; 4.25 Å; both purified
T3 sequence 1: T1 sequence
T3 sequence 2: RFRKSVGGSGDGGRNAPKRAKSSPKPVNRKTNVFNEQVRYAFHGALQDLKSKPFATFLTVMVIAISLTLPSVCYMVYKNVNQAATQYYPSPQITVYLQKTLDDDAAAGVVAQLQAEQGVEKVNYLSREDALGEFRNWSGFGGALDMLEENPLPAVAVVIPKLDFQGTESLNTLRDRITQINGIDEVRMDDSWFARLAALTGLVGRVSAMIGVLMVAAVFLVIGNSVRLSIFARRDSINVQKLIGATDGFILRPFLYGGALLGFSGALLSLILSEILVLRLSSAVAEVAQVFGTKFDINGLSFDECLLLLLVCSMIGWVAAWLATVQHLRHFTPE

[4] = molecular target: T4, FtsX (E. coli K12) (UniProt P0AC30); experiment: as above
T4 sequence: T3 sequence 2

B1: FtsX (natural protein, E. coli K12)
chain: T3 sequence 2
notes: FtsX, E. coli K12, integral membrane protein of FtsEX (four transmembrane helices, periplasmic loop domain); gene amplified from genomic DNA; The gene was amplified from genomic DNA and no truncation or tag on FtsX is mentioned; also called FtsX of FtsEX; TMDs and PLDs
binding [1]: binds

B2: FtsX–ECFP (protein, UniProt P0AC30 19-352)
chain: T3 sequence 2
binding [2]: binds

B3: EnvC(35-419) (domain or fragment, UniProt P37690 35-419)
chain: DERDQLKSIQADIAAKERAVRQKQQQRASLLAQLKKQEEAISEATRKLRETQNTLNQLNKQIDEMNASIAKLEQQKAAQERSLAAQLDAAFRQGEHTGIQLILSGEESQRGQRLQAYFGYLNQARQETIAQLKQTREEVAMQRAELEEKQSEQQTLLYEQRAQQAKLTQALNERKKTLAGLESSIQQGQQQLSELRANESRLRNSIARAEAAAKARAEREAREAQAVRDRQKEATRKGTTYKPTESEKSLMSRTGGLGAPRGQAFWPVRGPTLHRYGEQLQGELRWKGMVIGASEGTEVKAIADGRVILADWLQGYGLVVVVEHGKGDMSLYGYNQSALVSVGSQVRAGQPIALVGSSGGQGRPSLYFEIRRQGQAVNPQPWLGR
binding [3]: binds | binding [4]: binds
